Source: publication PMC11219872
Results are given in words; binding and its absence hold for the method and conditions named. Some results given as binding are weak or reduced against the parent protein; the word gives no strength.

The chains behind the UniProt entries cited, without tags or fusion partners. Where a name states a change or a piece, a line headed by the entry shows the natural chain unless it says otherwise.
UniProt Q9UHI7: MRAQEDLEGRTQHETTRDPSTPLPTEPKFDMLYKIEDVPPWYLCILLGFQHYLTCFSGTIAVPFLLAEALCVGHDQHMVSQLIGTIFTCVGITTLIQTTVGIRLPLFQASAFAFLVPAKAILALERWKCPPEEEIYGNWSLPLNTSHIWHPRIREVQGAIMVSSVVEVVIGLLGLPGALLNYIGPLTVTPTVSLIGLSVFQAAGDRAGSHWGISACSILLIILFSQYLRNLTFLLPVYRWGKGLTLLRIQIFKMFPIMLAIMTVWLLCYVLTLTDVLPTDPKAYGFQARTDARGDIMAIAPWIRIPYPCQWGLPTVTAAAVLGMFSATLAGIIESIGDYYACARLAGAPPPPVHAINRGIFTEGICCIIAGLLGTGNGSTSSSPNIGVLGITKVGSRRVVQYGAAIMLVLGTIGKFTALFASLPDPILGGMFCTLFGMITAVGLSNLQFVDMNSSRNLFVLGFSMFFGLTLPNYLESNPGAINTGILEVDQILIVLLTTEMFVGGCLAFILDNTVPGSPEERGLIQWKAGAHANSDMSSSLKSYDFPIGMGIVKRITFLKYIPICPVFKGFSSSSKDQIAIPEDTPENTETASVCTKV

Assays:
[1] = target: C-terminally GFP-fused human SVCT1 (hSVCT1-GFP), wild type (human) (UniProt Q9UHI7); test: SEC; fluorescence-detection SEC (FSEC, GFP fluorescence) of HEK293T lysates solubilised in DDM, DDM-CHS, LMNG or LMNG-CHS; Superdex 200 Increase 10/300 GL; 20 mM HEPES pH 7.0, 150 mM NaCl (or K+ in place of Na+)
[2] = target: C-terminally GFP-fused human SVCT1 (hSVCT1-GFP), wild type (human) (UniProt Q9UHI7); test: SEC; fluorescence-detection SEC (FSEC, GFP fluorescence) of HEK293T lysates of wild type or mutants solubilised in 1% LMNG and 0.1% CHS; Superdex 200 Increase 10/300 GL or ENrich SEC 650; curves compared to wild type
[3] = target: hSVCT1-GFP F466A mutant (human) (UniProt Q9UHI7); test: as above

Row | binding [1] | binding [2] | binding [3] | Substance
1 | binds | binds |  | C-terminally GFP-fused human SVCT1 (hSVCT1-GFP), wild type (from UniProt Q9UHI7 1-598)
2 |  |  | binds | hSVCT1-GFP F466A mutant (from UniProt Q9UHI7 1-598)
